Laboratory results reported in paper PMC6208480.
Results are given in words; binding and its absence hold for the method and conditions named. Binding seen in cells or lysates may run through a third protein. Some entries that bind do so weakly or less than the wild type.

Protein sequences, listed by entry. Tags and fused reporters are not part of them.
UniProt Q9Z2V6: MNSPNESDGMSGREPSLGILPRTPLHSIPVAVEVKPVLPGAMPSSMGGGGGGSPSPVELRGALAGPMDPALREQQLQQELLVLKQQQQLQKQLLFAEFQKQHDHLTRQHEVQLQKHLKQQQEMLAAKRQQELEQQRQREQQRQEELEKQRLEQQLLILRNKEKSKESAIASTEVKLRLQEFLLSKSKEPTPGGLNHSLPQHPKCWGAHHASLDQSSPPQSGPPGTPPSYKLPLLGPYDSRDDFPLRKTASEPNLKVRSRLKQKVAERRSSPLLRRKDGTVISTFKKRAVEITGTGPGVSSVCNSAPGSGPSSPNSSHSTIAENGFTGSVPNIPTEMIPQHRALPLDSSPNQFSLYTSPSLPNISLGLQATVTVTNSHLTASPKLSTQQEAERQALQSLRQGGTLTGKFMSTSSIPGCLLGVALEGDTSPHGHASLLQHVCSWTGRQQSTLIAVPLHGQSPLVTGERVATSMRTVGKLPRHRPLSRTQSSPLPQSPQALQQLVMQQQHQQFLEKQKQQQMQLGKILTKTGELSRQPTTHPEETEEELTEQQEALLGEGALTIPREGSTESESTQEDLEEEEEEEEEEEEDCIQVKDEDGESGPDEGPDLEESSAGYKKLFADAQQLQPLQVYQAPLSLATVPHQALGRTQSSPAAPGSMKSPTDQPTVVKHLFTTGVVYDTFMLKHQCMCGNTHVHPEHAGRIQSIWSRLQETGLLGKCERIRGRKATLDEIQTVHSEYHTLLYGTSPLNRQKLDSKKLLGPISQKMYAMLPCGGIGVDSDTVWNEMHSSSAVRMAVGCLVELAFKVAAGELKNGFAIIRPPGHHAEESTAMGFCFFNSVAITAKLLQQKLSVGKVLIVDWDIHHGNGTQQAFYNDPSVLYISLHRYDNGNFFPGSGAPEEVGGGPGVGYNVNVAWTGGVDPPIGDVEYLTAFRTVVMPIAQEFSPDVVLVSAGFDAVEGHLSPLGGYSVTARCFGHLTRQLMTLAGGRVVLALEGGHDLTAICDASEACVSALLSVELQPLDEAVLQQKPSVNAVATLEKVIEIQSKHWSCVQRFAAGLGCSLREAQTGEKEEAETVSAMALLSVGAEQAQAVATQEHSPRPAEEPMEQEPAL
UniProt Q9WTL8: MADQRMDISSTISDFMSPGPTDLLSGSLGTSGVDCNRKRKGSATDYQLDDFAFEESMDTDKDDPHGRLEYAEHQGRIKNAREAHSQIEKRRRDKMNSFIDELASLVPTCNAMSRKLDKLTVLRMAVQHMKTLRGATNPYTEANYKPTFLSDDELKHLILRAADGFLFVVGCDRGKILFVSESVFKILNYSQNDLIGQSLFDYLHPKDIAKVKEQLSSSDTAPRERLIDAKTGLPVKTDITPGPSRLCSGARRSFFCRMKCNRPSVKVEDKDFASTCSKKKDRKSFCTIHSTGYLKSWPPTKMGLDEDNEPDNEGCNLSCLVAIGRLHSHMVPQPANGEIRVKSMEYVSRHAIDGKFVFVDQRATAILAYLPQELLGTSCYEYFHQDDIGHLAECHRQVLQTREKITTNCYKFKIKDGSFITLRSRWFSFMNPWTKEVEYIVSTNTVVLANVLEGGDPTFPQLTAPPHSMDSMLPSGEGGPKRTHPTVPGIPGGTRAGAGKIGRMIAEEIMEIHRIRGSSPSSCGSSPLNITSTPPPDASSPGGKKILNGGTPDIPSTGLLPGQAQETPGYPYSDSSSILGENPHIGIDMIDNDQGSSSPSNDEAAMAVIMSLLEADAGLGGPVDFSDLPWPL

Assays:
[1] = target: HDAC5 (endogenous, mouse liver) (mouse (endogenous in liver)) (UniProt Q9Z2V6); assay: co-IP; immunoprecipitation of HDAC5 from liver samples of RD- or HFD-fed mice, immunoblot of BMAL1
[2] = target: HDAC5 (endogenous, primary hepatocytes) (not stated (endogenous in primary hepatocytes)) (UniProt Q9Z2V6); assay: co-IP; immunoprecipitation of endogenous HDAC5 from primary hepatocytes, immunoblot of BMAL1; cells untreated or exposed to FSK

| Substance | binding [1] | binding [2] |
| --- | --- | --- |
| BMAL1 (endogenous, mouse liver) (from UniProt Q9WTL8 1-632) | binds |  |
| BMAL1 (endogenous, primary hepatocytes) (from UniProt Q9WTL8 1-632) |  | binds |
